{"source": "patent US20230285372A1", "about": "“Pharmaceutical use of (E)-3-arylheterocyclylprop-2-enoic acid derivatives” (MEDCURIUS INC., priority 2020, published 2023)", "tested_on": "HT-22 cells", "assay": "Protective effect on HT-22 cell damage caused by L-glutamate monosodium salt", "assay_type": "cell-based, mouse", "conditions": "15 mM L-glutamate, comparison with positive control drug DMF", "procedure": "(§1) Well-proliferated HT-22 cells, derived from mouse hippocampal neuronal cells in logarithmic growth phase, were selected, and they were counted after being subjected to trypsin digestion and dispersion. The cell density was adjusted with DMEM/F12 medium (containing 10% FBS and 1% double antibody). The cells were then inoculated in a 96-well plate at a density of 2,000 cells per well, and cultured in a cell incubator at 37° C. in atmosphere containing 5% CO2 for 24 hours. For the control group and the L-glutamate monosodium salt group (model group), serum-free DMEM/F12 medium was added, and the other wells were added with tested compounds of different concentrations; except that the serum-free DMEM/F12 medium was added to the control group. L-glutamate monosodium salt solution at the final concentration of 15 mM was added to the remaining wells. After 24 hours, the cell viability was detected with a luminescent cell viability assay kit.\nas §1, with “group,” for “group.”\nas §1, with “2.000” for “2,000”, “group,” for “group.”", "note": "Some of these results come from one statement about several compounds together.", "data": [{"smiles": "COC(=O)/C=C/c1ncccn1", "note": "[Compound I-18]", "values": [{"measurement": "protection of HT22 cells against L-glutamate monosodium salt damage, in words", "value": "can reduce the damage of the L-glutamate monosodium salt to the HT22 cells"}]}, {"smiles": "CN(C)C(=O)/C=C/c1ncccn1", "note": "[Compound I-19]", "values": [{"measurement": "protection of HT22 cells against L-glutamate monosodium salt damage, in words", "value": "can reduce the damage of the L-glutamate monosodium salt to the HT22 cells"}]}, {"smiles": "CON(C)C(=O)/C=C/c1cccnc1", "note": "[Compound I-9]", "values": [{"measurement": "protection of HT22 cells against L-glutamate monosodium salt damage, in words", "value": "can reduce the damage of the L-glutamate monosodium salt to the HT22 cells"}]}, {"smiles": "CON(C)C(=O)/C=C/c1ccccn1", "note": "[Compound I-8]", "values": [{"measurement": "protection of HT22 cells against L-glutamate monosodium salt damage, in words", "setting": "listed as compound I-8", "value": "can reduce the damage of the L-glutamate monosodium salt to the HT22 cells"}]}, {"smiles": "CON(C)C(=O)/C=C/c1ccncn1", "note": "[Compound I-21]", "values": [{"measurement": "protection of HT22 cells against L-glutamate monosodium salt damage, in words", "value": "can reduce the damage of the L-glutamate monosodium salt to the HT22 cells"}]}, {"smiles": "CN(C)C(=O)/C=C/c1nccn1C", "note": "[Compound I-24]", "values": [{"measurement": "protection of HT22 cells against L-glutamate monosodium salt damage, in words", "value": "can reduce the damage of the L-glutamate monosodium salt to the HT22 cells"}]}, {"smiles": "COC(=O)/C=C/c1ncc[nH]1", "note": "[Compound I-22]", "values": [{"measurement": "protection of HT22 cells against L-glutamate monosodium salt damage, in words", "value": "can reduce the damage of the L-glutamate monosodium salt to the HT22 cells"}]}, {"smiles": "COC(=O)/C=C/c1nccn1C", "note": "[Compound I-23]", "values": [{"measurement": "protection of HT22 cells against L-glutamate monosodium salt damage, in words", "setting": "listed as compound I-23", "value": "can reduce the damage of the L-glutamate monosodium salt to the HT22 cells"}]}, {"smiles": "COC(=O)NC(=O)/C=C/c1cccnc1", "note": "[Compound I-16]", "values": [{"measurement": "protection of HT22 cells against L-glutamate monosodium salt damage, in words", "value": "can reduce the damage of the L-glutamate monosodium salt to the HT22 cells"}]}, {"smiles": "COC(=O)NC(=O)/C=C/c1ccncc1", "note": "[Compound I-17]", "values": [{"measurement": "protection of HT22 cells against L-glutamate monosodium salt damage, in words", "value": "can reduce the damage of the L-glutamate monosodium salt to the HT22 cells"}]}, {"smiles": "CN(C)C(=O)/C=C/c1ccncn1", "note": "[Compound I-20]", "values": [{"measurement": "protection of HT22 cells against L-glutamate monosodium salt damage, in words", "value": "can reduce the damage of the L-glutamate monosodium salt to the HT22 cells"}]}, {"smiles": "COC(=O)NC(=O)/C=C/c1ccccn1", "note": "[Compound I-15]", "values": [{"measurement": "protection of HT22 cells against L-glutamate monosodium salt damage, in words", "value": "can reduce the damage of the L-glutamate monosodium salt to the HT22 cells"}]}, {"smiles": "CON(C)C(=O)/C=C/c1ccncc1", "note": "[Compound I-10]", "values": [{"measurement": "protection of HT22 cells against L-glutamate monosodium salt damage, in words", "value": "can reduce the damage of the L-glutamate monosodium salt to the HT22 cells"}]}]}
